Measured values taken from PubChem BioAssay AID330 (DTP/NCI, 2004).
The list shows only some results of the screen, not a fair sample: it gathers tests that were run many times, whatever their T/C, doses with no T/C, and many T/C values between a quarter and a half above the control. Other doses and runs of a compound stand elsewhere. T/C is the treated group as % of the vehicle group. Some doses have a count of surviving animals in place of a T/C: the source holds a T/C of zero for them, seemingly a mark for toxic or unscored doses. Some doses without a T/C left all or most animals alive at the check, yet need not have been tolerated: survival well below the control is almost never listed, so the zero probably covers shortened survival too. Survivors were counted at the toxicity check, usually on the fifth day, unless a day is given; later deaths do not show. Schedules are NCI's codes, read here as Q, the interval in days (D) or hours (H), X, the number of doses. Some molecules as drawn cover several salts, stereoisomers or complexes of the source; a dose is that of the sample tested. Where survival is the endpoint, this PubChem deposit counts one and a half times the control or more as active, and values a quarter to a half above the control carry no call in these data; other NCI protocols may use other cut-offs. Some entries were tested several times; their values stand side by side, smallest first.

Test system: P388 leukemia ip, CD2F1 mice, survival T/C
Test: NCI In Vivo Anticancer Drug Screen. Data for tumor model P388 Leukemia (intraperitoneal) in CD2F1 (CDF1) mice
Settings: T/C endpoint: median survival time, higher T/C = longer survival
[1] = dose: 200.0 mg/kg/injection, schedule: Q01DX005 (ip), vehicle: Klucel (hydroxypropylcellulose) (HPC)
[2] = dose: 200.0 mg/kg/injection, schedule: Q01DX009 (ip), vehicle: saline with Tween-80
[3] = dose: 200.0 mg/kg/injection, schedule: Q01DX009 (ip), vehicle: Klucel (hydroxypropylcellulose) (HPC)
[4] = dose: 240.0 mg/kg/injection, schedule: Q01DX005 (ip), vehicle: Klucel (hydroxypropylcellulose) (HPC)
[5] = dose: 240.0 mg/kg/injection, schedule: Q01DX005 (ip), vehicle: saline with Tween-80
[6] = dose: 100.0 mg/kg/injection, schedule: Q04DX003 (ip), vehicle: saline
[7] = dose: 200.0 mg/kg/injection, schedule: Q04DX003 (ip), vehicle: saline
[8] = dose: 400.0 mg/kg/injection, schedule: Q04DX003 (ip), vehicle: saline

C=C(C)C(=NC(C)(C)C)Nc1ccc(Cl)cc1
survivor count [1]: 1 of 5 | T/C [2]: 127 and 134 % of control

Cc1ccnc(NC(=O)Nc2cc(Cl)ccc2Cl)c1
survivor count [3]: 6 of 6

COc1ccccc1C1OC2=C(Nc3ccc([N+](=O)[O-])cc3N2)C1=O (stereo not drawn)
survivor count (dose: 60.0 mg/kg/injection, schedule: Q01DX005 (ip), vehicle: Klucel (hydroxypropylcellulose) (HPC)): 6 of 6 | survivor count [4]: 6 of 6

Cc1nn(C)c(=O)c(N)c1-c1cc(-c2ccc(Cl)cc2)n[nH]1
survivor count [5]: 0 of 6

O=S(=O)(/C=C/c1cccnc1)/C=C/c1cccnc1
survivor count (dose: 100.0 mg/kg/injection, schedule: Q01DX009 (ip), vehicle: saline with Tween-80): 3 of 6

CN1C(=O)C2CCC(=O)N2C(=S)N(C)C1=S (stereo not drawn)
survivor count [5]: 6 of 6

CC(C)=NNC(N)=S
survivor count (dose: 50.0 mg/kg/injection, schedule: Q04DX003 (ip), vehicle: Klucel (hydroxypropylcellulose) (HPC)): 1 of 6 | survivor count (dose: 100.0 mg/kg/injection, schedule: Q04DX003 (ip), vehicle: Klucel (hydroxypropylcellulose) (HPC)): 1 of 6 | survivor count (dose: 200.0 mg/kg/injection, schedule: Q04DX003 (ip), vehicle: Klucel (hydroxypropylcellulose) (HPC)): 0 of 6 | survivor count (dose: 400.0 mg/kg/injection, schedule: Q04DX003 (ip), vehicle: Klucel (hydroxypropylcellulose) (HPC)): 0 of 6

CCn1c(=O)c2[nH]c(Cl)nc2n(C2CC2)c1=O
survivor count [3]: 0 of 6

Cc1nc(C)n2c(C)nnc2c1C
survivor count [6]: 6 of 6 | survivor count [7]: 0 of 6 | survivor count [8]: 0 of 6

O=C1NC(=O)C2C1C1C(=O)NC(=O)C21 (stereo not drawn)
survivor count [2]: 5 of 6

NC(=O)c1nn[nH]n1
survivor count [3]: 6 of 6

COC(=O)c1nc(N)nc(C(=O)OC)c1C(=O)c1ccco1
survivor count [4]: 0 of 6

CCOC(CN1Cc2cc(OC)c(OC)cc2CC1c1ccc(OC)c(OC)c1)OCC (stereo not drawn)
survivor count [5]: 6 of 6

CN(C)C[N+](C)(C)Cc1ccc(C[N+](C)(C)C[N+](C)(C)Cc2ccc(CCl)cc2)cc1
survivor count (dose: 1.56 mg/kg/injection, schedule: Q04DX003 (ip), vehicle: saline): 2 of 6 | survivor count (dose: 3.12 mg/kg/injection, schedule: Q04DX003 (ip), vehicle: saline): 1 of 6 | survivor count (dose: 6.25 mg/kg/injection, schedule: Q04DX003 (ip), vehicle: saline): 0 of 6 | survivor count (dose: 12.5 mg/kg/injection, schedule: Q04DX003 (ip), vehicle: saline): 0 of 6 | survivor count [6]: 0 of 6 | survivor count [7]: 0 of 6 | survivor count [8]: 0 of 6

Cc1c(Cl)cccc1NC(=O)Nc1nccs1
survivor count [3]: 1 of 6

Brc1ccc(N=C2N=C(Nc3ccc(Br)cn3)c3ccccc32)nc1
survivor count (dose: 100.0 mg/kg/injection, schedule: Q04DX002 (ip), vehicle: saline with Tween-80): 6 of 6

Cc1n[nH]c(=O)n(/N=C/c2ccc(N(C)C)cc2)c1=O
survivor count [4]: 6 of 6

CCOC(=O)N1CCNCC1
survivor count [8]: 2 of 6

Cn1c(=O)c2c(nc(CCCCc3nc4c(c(=O)n(C)c(=O)n4C)n3C)n2C)n(C)c1=O
survivor count (dose: 12.5 mg/kg/injection, schedule: Q01DX009 (ip), vehicle: saline with Tween-80): 6 of 6 | survivor count (dose: 25.0 mg/kg/injection, schedule: Q01DX009 (ip), vehicle: saline with Tween-80): 6 of 6

Nc1c2c(=O)[nH]c(O)cc2nn1-c1ccccc1
survivor count (dose: 100.0 mg/kg/injection, schedule: Q01DX005 (ip), vehicle: saline with Tween-80): 2 of 6 | survivor count (dose: 200.0 mg/kg/injection, schedule: Q01DX005 (ip), vehicle: saline with Tween-80): 0 of 6

NC(N)=NC(N)=Nc1ccc([As](=O)(O)O)c(O)c1
T/C (dose: 100.0 mg/kg/injection, schedule: Q01DX009 (ip), vehicle: saline sonified): 136 % of control

CCCCOc1ccc(-c2cnc(-c3ccc(-c4ncc(-c5ccc(OCCCC)cc5)o4)cc3)o2)cc1
survivor count (dose: 12.0 mg/kg/injection, schedule: Q01DX005 (ip), vehicle: saline with Tween-80): 5 of 5 | survivor count (dose: 12.5 mg/kg/injection, schedule: Q01DX005 (ip), vehicle: saline with Tween-80): 5 of 5

COc1cc2c(=O)oc3c(OC)c(O)cc4c(=O)oc(c1OC)c2c34
T/C (dose: 16.0 mg/kg/injection, schedule: Q01DX005 (ip), vehicle: saline with Tween-80): 144 % of control | survivor count (dose: 32.0 mg/kg/injection, schedule: Q01DX005 (ip), vehicle: saline with Tween-80): 6 of 6

CCOC(=O)C1=C(O)C(=O)NC1c1ccccc1 (stereo not drawn)
survivor count (dose: 120.0 mg/kg/injection, schedule: Q01DX005 (ip), vehicle: Klucel (hydroxypropylcellulose) (HPC)): 0 of 6 | survivor count [4]: 0 of 6

C1CCCCC2=NCCC(CCCC1)C2 (stereo not drawn)
survivor count [1]: 0 of 6
